Data from the supplement of paper PMC10849652.
The other results are listed elsewhere or left out. Residues, ends and D or L forms follow the SMILES beside them. *: point of attachment. Cbz = O=C(OCc1ccccc1)*

Protein sequences, listed by entry. Tags and fused reporters are not part of them. Lines headed by an entry give the natural chain unless they say otherwise; changes in a name come on top.
UniProt Q96DC8: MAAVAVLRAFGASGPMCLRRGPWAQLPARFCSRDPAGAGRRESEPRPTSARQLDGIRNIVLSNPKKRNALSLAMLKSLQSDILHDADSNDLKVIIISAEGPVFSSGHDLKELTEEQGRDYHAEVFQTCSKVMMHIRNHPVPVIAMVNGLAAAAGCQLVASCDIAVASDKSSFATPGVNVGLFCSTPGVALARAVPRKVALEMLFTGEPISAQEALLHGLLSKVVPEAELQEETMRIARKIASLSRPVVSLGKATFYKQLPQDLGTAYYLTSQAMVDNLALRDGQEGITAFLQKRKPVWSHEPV
UniProt P63172, whole entry, looked up: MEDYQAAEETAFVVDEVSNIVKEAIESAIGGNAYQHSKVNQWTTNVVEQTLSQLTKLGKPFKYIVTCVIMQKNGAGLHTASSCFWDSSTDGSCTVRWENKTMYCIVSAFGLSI
UniProt Q99956: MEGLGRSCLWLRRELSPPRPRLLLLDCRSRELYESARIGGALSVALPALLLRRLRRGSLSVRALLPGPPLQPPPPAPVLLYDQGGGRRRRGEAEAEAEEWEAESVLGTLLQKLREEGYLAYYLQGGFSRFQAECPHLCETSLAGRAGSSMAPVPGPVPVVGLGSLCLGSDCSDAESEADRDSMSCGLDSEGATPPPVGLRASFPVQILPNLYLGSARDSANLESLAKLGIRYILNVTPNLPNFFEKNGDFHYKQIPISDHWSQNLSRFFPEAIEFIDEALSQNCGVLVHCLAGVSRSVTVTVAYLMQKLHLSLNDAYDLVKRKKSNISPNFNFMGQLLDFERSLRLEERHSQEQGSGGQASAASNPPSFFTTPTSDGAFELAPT
UniProt Q96LL9: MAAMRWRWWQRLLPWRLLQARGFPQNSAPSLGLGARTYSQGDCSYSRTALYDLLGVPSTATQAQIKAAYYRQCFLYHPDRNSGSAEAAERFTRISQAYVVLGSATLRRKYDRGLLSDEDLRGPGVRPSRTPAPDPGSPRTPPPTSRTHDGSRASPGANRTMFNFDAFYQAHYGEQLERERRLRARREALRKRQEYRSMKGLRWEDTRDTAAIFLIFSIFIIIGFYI
UniProt O14641: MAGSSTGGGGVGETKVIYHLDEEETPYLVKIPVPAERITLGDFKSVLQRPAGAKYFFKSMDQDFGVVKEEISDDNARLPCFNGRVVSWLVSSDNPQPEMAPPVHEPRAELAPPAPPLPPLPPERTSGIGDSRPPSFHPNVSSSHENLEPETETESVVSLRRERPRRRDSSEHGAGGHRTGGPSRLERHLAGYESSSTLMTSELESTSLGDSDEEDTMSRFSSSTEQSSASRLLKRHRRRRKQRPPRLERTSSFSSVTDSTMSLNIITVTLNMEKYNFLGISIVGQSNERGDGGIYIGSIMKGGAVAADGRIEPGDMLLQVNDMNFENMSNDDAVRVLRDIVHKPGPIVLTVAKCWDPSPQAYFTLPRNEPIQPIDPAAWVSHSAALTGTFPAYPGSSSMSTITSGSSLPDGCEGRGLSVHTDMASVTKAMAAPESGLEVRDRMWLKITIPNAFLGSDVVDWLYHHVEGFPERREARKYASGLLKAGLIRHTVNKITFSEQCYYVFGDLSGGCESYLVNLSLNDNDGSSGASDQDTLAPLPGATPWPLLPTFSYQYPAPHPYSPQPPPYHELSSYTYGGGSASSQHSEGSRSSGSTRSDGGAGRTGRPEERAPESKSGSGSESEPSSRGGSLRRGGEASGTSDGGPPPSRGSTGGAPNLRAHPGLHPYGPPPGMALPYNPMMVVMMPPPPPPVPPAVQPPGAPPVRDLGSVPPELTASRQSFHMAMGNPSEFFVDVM
UniProt Q9NRR4: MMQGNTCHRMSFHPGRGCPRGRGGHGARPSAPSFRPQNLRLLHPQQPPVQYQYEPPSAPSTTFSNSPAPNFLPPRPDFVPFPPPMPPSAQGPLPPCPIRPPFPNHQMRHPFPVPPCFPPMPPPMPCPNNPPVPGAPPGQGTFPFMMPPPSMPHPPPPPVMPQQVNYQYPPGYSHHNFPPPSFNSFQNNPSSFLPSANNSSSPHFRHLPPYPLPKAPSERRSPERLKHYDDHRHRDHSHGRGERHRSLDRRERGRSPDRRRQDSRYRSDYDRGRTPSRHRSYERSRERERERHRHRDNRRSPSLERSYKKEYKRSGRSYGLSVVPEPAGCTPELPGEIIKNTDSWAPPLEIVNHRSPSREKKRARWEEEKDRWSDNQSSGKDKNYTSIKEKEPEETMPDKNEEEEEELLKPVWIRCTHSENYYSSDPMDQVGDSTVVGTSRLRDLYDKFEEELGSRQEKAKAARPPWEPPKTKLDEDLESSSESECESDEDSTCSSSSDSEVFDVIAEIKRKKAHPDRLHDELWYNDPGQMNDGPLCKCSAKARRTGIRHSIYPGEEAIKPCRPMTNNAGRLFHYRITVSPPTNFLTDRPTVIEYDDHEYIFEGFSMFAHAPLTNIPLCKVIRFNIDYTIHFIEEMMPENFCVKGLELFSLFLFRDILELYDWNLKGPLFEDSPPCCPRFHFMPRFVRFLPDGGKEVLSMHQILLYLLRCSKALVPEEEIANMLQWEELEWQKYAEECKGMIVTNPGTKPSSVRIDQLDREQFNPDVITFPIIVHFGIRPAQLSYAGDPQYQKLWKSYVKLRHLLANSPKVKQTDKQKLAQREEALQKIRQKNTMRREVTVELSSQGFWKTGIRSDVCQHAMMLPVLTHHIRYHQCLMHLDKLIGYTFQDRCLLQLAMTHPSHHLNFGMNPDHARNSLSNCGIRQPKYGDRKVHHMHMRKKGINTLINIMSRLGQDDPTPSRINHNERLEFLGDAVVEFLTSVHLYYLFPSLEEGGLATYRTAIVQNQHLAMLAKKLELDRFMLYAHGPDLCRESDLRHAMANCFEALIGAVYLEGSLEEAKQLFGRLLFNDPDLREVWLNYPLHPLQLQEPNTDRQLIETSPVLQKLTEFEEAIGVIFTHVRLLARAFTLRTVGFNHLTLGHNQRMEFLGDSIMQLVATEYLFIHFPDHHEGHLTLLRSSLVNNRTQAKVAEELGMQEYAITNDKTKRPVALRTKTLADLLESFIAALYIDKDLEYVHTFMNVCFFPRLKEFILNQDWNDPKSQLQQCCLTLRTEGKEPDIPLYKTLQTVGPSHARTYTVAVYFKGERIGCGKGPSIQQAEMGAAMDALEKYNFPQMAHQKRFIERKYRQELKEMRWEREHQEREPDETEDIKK
UniProt Q16610: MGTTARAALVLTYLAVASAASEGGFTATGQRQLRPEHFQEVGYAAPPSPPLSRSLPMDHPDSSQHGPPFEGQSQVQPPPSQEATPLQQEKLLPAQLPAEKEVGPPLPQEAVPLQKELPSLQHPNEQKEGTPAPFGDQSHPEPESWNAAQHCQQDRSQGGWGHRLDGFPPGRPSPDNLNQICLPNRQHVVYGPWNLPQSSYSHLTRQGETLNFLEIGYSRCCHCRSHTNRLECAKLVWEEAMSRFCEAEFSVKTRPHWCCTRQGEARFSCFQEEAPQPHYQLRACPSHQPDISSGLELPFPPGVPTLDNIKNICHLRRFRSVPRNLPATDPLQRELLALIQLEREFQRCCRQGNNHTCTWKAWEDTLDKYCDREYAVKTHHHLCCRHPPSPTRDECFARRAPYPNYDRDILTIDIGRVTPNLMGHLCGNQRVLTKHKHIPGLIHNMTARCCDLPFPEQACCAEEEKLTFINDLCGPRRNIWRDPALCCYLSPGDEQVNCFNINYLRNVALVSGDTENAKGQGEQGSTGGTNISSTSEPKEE
UniProt Q8WTR2: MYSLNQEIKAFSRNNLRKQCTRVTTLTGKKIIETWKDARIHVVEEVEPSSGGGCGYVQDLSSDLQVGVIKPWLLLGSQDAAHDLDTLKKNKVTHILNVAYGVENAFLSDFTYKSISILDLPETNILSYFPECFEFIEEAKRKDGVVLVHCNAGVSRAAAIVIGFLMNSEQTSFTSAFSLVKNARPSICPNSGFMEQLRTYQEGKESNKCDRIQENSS
UniProt Q9Y5T4: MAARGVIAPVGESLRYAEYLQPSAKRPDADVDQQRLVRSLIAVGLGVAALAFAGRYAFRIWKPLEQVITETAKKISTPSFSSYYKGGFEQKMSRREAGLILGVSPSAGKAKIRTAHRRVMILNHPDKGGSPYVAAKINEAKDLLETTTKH
UniProt Q9H8V3: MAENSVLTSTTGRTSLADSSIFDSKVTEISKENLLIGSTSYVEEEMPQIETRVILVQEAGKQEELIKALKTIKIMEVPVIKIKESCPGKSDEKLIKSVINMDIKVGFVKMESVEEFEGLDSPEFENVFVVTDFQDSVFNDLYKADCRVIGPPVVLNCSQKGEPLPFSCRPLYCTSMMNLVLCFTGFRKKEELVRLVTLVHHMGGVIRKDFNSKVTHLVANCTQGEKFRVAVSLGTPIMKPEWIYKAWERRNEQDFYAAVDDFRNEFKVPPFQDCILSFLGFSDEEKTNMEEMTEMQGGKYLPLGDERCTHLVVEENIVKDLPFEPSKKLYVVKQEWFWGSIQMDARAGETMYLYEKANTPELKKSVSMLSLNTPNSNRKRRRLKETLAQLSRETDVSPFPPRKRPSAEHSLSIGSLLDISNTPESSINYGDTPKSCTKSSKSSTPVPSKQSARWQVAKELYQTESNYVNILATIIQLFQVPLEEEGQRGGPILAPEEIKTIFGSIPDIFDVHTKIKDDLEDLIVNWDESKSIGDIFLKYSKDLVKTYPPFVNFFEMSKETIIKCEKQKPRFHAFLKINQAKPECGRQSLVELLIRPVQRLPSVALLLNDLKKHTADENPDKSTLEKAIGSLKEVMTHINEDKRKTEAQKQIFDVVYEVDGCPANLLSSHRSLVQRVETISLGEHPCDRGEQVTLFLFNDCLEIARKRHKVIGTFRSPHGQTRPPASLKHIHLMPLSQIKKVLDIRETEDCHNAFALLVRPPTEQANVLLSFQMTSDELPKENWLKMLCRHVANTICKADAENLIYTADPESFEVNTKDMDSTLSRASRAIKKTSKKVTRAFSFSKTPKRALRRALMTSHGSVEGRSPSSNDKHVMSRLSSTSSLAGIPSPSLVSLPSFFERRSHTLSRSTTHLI
UniProt Q6P1R4: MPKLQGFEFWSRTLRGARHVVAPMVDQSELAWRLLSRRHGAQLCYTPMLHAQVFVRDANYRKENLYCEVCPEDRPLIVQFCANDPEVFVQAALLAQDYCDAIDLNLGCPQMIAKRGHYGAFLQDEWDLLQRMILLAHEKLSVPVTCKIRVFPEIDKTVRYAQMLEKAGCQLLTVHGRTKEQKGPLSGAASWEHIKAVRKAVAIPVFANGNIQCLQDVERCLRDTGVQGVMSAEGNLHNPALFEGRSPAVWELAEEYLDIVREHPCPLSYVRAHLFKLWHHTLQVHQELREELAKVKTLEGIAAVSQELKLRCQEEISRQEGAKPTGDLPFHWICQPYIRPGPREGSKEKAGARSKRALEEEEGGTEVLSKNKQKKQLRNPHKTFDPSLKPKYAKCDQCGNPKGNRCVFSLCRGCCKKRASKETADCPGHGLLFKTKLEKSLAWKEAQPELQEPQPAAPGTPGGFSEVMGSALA

How the values were obtained:
Experiment in all cases: log2 fold change, soluble protein after heating vs DMSO (PISA); higher = thermal stabilisation; K562 cells, 10 uM, 30 min; active = over 0.2 and 3.5 SD of the protein, either way, in both replicates (recomputed)
IRAK-1-4 Inhibitor I = compound: C1COCCN1CCN2C3=CC=CC=C3N=C2NC(=O)C4=CC(=CC=C4)[N+](=O)[O-] [IRAK-1-4 Inhibitor I]
Outline: (§1)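 K562 cells at 2×10^6 cells/mL were treated with 10 μM compound for 30 min. Aliquots were heated for 3 min across 48°C-58°C, pooled, and extracted in PBS with 0.5% NP-40 at 4°C; soluble protein was the supernatant after 21,000xg for 90 min. Soluble protein was quantified by TMTpro 16plex LC-MS/MS with channel sums equalised, and reported as log2 fold change in thermal stability against DMSO controls, with values from duplicates.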

[1] = compound: CC(=O)c1cnc2ccc(-c3cc(Cl)c(O)c(Cl)c3)nc2c1N[C@H]1CC[C@H](CN(C)C)CC1
Outline: as §1

[2] = compound: CC(C)C1=C2N=C(C=C(N2N=C1)NCC3=CC=CC=C3)NCCCCCCN
Outline: as §1

pinometostat = compound: CC(C)N(C[C@H]1O[C@@H](n2cnc3c(N)ncnc32)[C@H](O)[C@@H]1O)[C@H]1C[C@@H](CCc2nc3cc(C(C)(C)C)ccc3[nH]2)C1 [pinometostat]
Outline: as §1

[3] = compound: CC1=C(C2=C(C=C1)C(=O)C3=CC=CC=C3N2CCCN)C
Outline: as §1

[4] = compound: CC1=C(C=C(C=C1)NC(=O)C2=CC(=CC=C2)C(C)(C)C#N)NC3=CC4=C(C=C3)N=CN(C4=O)C
Outline: as §1

[5] = compound: CC1=CC=C(C=C1)SC2=C3C=C(SC3=CN=C2)C(=O)N
Outline: as §1

[6] = compound: CC1=NC(=CC=C1)C2=C(N=C(N2)C(C)(C)C)C3=CC4=NC=CN=C4C=C3
Outline: as §1

vemurafenib = compound: CCCS(=O)(=O)Nc1ccc(F)c(C(=O)c2c[nH]c3ncc(-c4ccc(Cl)cc4)cc23)c1F [vemurafenib]
Outline: as §1

[7] = compound: CCCS(=O)(=O)Nc1ccc(F)c(C(=O)c2c[nH]c3ncc(Cl)cc23)c1F
Outline: as §1

[8] = compound: CCCc1cc(C)[nH]c(=O)c1CNC(=O)c1cc(-c2ccnc(N3CCN(C)CC3)c2)cc2c1cnn2C(C)C
Outline: as §1

givinostat = compound: CCN(CC)Cc1ccc2cc(COC(=O)Nc3ccc(C(=O)NO)cc3)ccc2c1 [givinostat]
Outline: as §1

ibrutinib = compound: C=CC(=O)N1CCC[C@@H](n2nc(-c3ccc(Oc4ccccc4)cc3)c3c(N)ncnc32)C1 [ibrutinib]
Outline: as §1

ralimetinib = compound: CC(C)(C)Cn1c(N)nc2ccc(-c3[nH]c(C(C)(C)C)nc3-c3ccc(F)cc3)nc21 [ralimetinib]
Outline: as §1

[9] = compound: CC(C)(O)CC(=O)NCCn1ccc2ncnc(Nc3ccc(Oc4cccc(C(F)(F)F)c4)c(Cl)c3)c21
Outline: as §1

[10] = compound: CC(C)C[C@@H](C=O)NC(=O)[C@H](CC(C)C)NC(=O)[C@H](CC(C)C)NC(=O)OCc1ccccc1
Outline: as §1

[11] = compound: CC1=C(C(CC(=O)N1)C2=CC=C(C=C2)C(F)(F)F)C(=O)NC3=C(C=C4C(=C3)C=NN4)F
Outline: as §1

[12] = compound: CC1=C(C=C(C=C1)NC(=O)C2=CC(=CC=C2)N(C)C)NC(=O)C3=CC=C(C=C3)O
Outline: as §1

Nexturastat A = compound: CCCCN(Cc1ccc(C(=O)NO)cc1)C(=O)Nc1ccccc1 [Nexturastat A]
Outline: as §1

barasertib = compound: CCN(CCCOc1ccc2c(Nc3cc(CC(=O)Nc4cccc(F)c4)[nH]n3)ncnc2c1)CCOP(=O)(O)O [barasertib]
Outline: as §1

Measured: log2 fold change

DNPEP (UniProt B9ZVU2)
inactive: IRAK-1-4 Inhibitor I -0.067 | [1] 0.157 | [2] 0.132 | pinometostat -0.066 | [3] -0.021 | [4] -0.115 | [5] -0.265 | [6] -0.059 | vemurafenib 0.045 | [7] 0.055 | [8] 0.029 | givinostat 0.036

ECHDC3 (UniProt Q96DC8)
inactive: IRAK-1-4 Inhibitor I 0.049 | ibrutinib -0.126 | ralimetinib 0.041 | [9] -0.137 | [2] 0.195 | [10] -0.042 | pinometostat -0.037 | [11] -0.23 | [3] 0.245 | [4] 0.121 | [12] -0.074 | [6] 0.064 | Nexturastat A -0.001 | vemurafenib -0.22 | [8] -0.185 | givinostat 0.029 | barasertib -0.014

DYNLT1 (UniProt P63172)
inactive: IRAK-1-4 Inhibitor I 0.071 | ibrutinib 0.044 | [1] 0.055 | ralimetinib 0.104 | [2] 0.049 | [10] 0.036 | pinometostat -0.023 | [11] -0.099 | [3] -0.045 | [4] 0.089 | [12] -0.149 | [5] 0.023 | [6] 0.085 | vemurafenib 0.007 | [7] 0.06 | [8] 0.147 | givinostat 0.004 | barasertib -0.015

DUSP9 (UniProt Q99956)
inactive: IRAK-1-4 Inhibitor I -0.064 | ralimetinib 0.035 | [9] -0.186 | [2] 0.038 | [10] -0.013 | pinometostat -0.048 | [11] 0.201 | [4] 0.015 | [12] 0.173 | [6] 0.142 | Nexturastat A -0.014 | vemurafenib 0.237 | givinostat -0.125

Quoted at random: 2 records from the list.
DYNLT1 (UniProt P63172)
inactive: IRAK-1-4 Inhibitor I 0.071 | ibrutinib 0.044 | [1] 0.055 | ralimetinib 0.104 | [2] 0.049 | [10] 0.036 | pinometostat -0.023 | [11] -0.099 | [3] -0.045 | [4] 0.089 | [12] -0.149 | [5] 0.023 | [6] 0.085 | vemurafenib 0.007 | [7] 0.06 | [8] 0.147 | givinostat 0.004 | barasertib -0.015

DNPEP (UniProt B9ZVU2)
inactive: IRAK-1-4 Inhibitor I -0.067 | [1] 0.157 | [2] 0.132 | pinometostat -0.066 | [3] -0.021 | [4] -0.115 | [5] -0.265 | [6] -0.059 | vemurafenib 0.045 | [7] 0.055 | [8] 0.029 | givinostat 0.036

The listing continues:

DNAJC30 (UniProt Q96LL9)
inactive: IRAK-1-4 Inhibitor I -0.089 | [1] 0.006 | [2] -0.108 | pinometostat 0.031 | [6] -0.043 | givinostat -0.05

DOCK1 (UniProt Q14185)
inactive: ibrutinib -0.088 | [1] -0.196 | ralimetinib -0.442 | [9] -0.068 | [2] -0.057 | [10] 0.012 | [4] 0.049 | [12] -0.064 | [5] -0.063 | Nexturastat A -0.004 | vemurafenib -0.18 | [7] -0.047 | givinostat 0.095 | barasertib 0.123

DVL2 (UniProt O14641)
inactive: [1] -0.229 | [9] 0.003 | [4] -0.036 | [5] -0.217 | Nexturastat A 0.485 | [7] -0.263

DNPH1 (UniProt H0Y8X4)
inactive: [1] 0.027 | ralimetinib 0.048 | [2] -0.023 | [10] 0.347 | [11] 0.261 | [3] 0.122 | [12] 0.274 | [5] -0.092 | [7] 0.016 | [8] -0.087 | givinostat 0.029

DROSHA (UniProt Q9NRR4)
inactive: [1] 0.07 | [9] -0.186 | [3] -0.1 | Nexturastat A 0.2

ECM1 isoform 2 (UniProt Q16610)
inactive: ibrutinib 0.154 | [1] 0.076 | [11] -0.626 | [3] 1.07 | vemurafenib 0.373 | [8] 0.211 | barasertib 0.535

DUSP19 (UniProt Q8WTR2)
inactive: [2] -0.316 | givinostat -0.022

DNAJB14 (UniProt H7C494)
inactive: IRAK-1-4 Inhibitor I 0.097 | pinometostat -0.162 | [11] 0.044 | [5] -0.172 | [6] 0.112 | vemurafenib -0.069 | [7] 0.013 | [8] 0.094

DNAJB1 (UniProt M0R128)
inactive: ibrutinib -0.077 | [3] 0.111 | vemurafenib -0.002 | barasertib 0.135

DNAJC15 (UniProt Q9Y5T4)
inactive: [4] -0.053 | [5] 0.127 | [7] 0.024

ECT2 isoform 3 (UniProt Q9H8V3)
inactive: ralimetinib -0.013 | [9] 0.052 | [10] 0.153 | [4] -0.313 | [12] -0.04 | Nexturastat A 0.114

DUSP12 (UniProt V9GYV5)
inactive: IRAK-1-4 Inhibitor I 0.095 | [9] -0.133 | pinometostat 0 | [4] -0.174 | [6] -0.248 | Nexturastat A 0.027 | vemurafenib 0.095

DUS1L (UniProt Q6P1R4)
inactive: ralimetinib -0.083 | [2] -0.04 | [10] 0.262 | [3] -0.001 | [12] 0.151 | [8] -0.26 | givinostat -0.152
